US20150320762A1, “TREATMENT OF PROLIFERATIVE DISEASES WITH PYRIMIDODIAZEPINONES” (Cyclacel limited, priority 2012, published 2015)
Some entries share one result that the patent states for a list of compounds.

The compounds below were run on BAC and ESCC cell lines versus the benign OE cell line (CPA) (assay: 96-well drug washout/outgrowth anti-proliferative assay (resazurin, day 6)). Conditions: cancerous (OE19, OE33, OE21, KYSE-410) versus benign Barrett's (CPA) cell lines; 3 to 24 hours treatment then washout.
Type: cell-based
Experimental: Tumour sensitivity towards Plk1 inhibitors was studied in a panel of oesophageal (OE) cell lines. The cell lines used were: a benign Barrett's (CPA), two Barrett's adenocarcinoma (OE19 and OE33; Sigma Aldrich), and two oesophageal squamous cell carcinoma cell lines (OE21, ECACC; and KYSE-410, ECACC).
The anti-proliferative effect of Plk1 inhibitors was studied in a 96-well format drug washout/outgrowth assay. Cells were seeded at 1.5-2.5×10^3 cells per well in 96-well plates and left to incubate overnight at 37° C., 5% CO2, before addition of a range of concentrations of each of the different Plk1 inhibitors. Cells were incubated with the compounds for various periods of time, ranging from 3 to 24 hours; media containing the compounds was then removed from the cells and replaced with drug-free media until the end of the assay. The cell viability was evaluated on day 6 using a standard resazurin-based assay according to manufacturer's instructions (AlamarBlue, AbD Serotec, Oxford, UK). The IC50 values were determined using IDBS software.
`COc1cc(C(=O)N[C@H]2CC[C@H](N3CCN(CC4CC4)CC3)CC2)ccc1Nc1ncc2c(n1)N(C1CCCC1)CC1(CC1)C(=O)N2C` [Compound A1, 4-(9′-cyclopentyl-5′-methyl-6′-oxo-5′,6′,8′,9′-tetrahydrospiro[cyclopropane-1,7′-pyrimido[4,5-b][1,4]diazepine]-2′-ylamino)-N-((trans)-4-(4-(cyclopropylmethyl)piperazin-1-yl)cyclohexyl)-3-methoxybenzamide] was tested, and the “inhibited the proliferation of the BAC and ESCC cell lines more potently than the benign OE cell line (fold)” value (shortened to “inhibited the proliferation … (fold)”) was “at least 10 fold”.
In the case of `COc1cc(C(=O)N[C@H]2CC[C@H](N3CCN(C)CC3)CC2)ccc1Nc1ncc2c(n1)N(C1CCCC1)CC1(CC1)C(=O)N2C` [Compound A7, 4-(9′-cyclopentyl-5′-methyl-6′-oxo-5′,6′,8′,9′-tetrahydrospiro[cyclopropane-1,7′-pyrimido[4,5-b][1,4]diazepine]-2′-ylamino)-N-((trans)-4-(4-methylpiperazin-1-yl)cyclohexyl)-3-methoxybenzamide], the “inhibited the proliferation … (fold)” value is reported as “at least 10 fold”.
With `COc1cc(C(=O)NC2CCN(C3CCOCC3)CC2)ccc1Nc1ncc2c(n1)N(C1CCCC1)CCC(=O)N2C` [Compound A13, 4-(9-cyclopentyl-5-methyl-6-oxo-6,7,8,9-tetrahydro-5H-pyrimido[4,5-b][1,4]diazepin-2-ylamino)-3-methoxy-N-[1-(tetrahydro-pyran-4-yl)-piperidin-4-yl]-benzamide] the “inhibited the proliferation … (fold)” value was “at least 10 fold”.
